Results deposited as PubChem BioAssay AID602196 (INSERM, 2012).

Aim: 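Genes whose knock-down alters cisplatin killing of lung cancer cells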
Cell system: human A549 lung cancer cells
Reagents: siRNA pair against human genes
Timing: 48 h transfection before cisplatin; time from cisplatin to read-out not stated
Conditions: cisplatin at a dose killing half of control-siRNA cells; exact dose and duration not given
Measured: 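Shift in cisplatin death relative to control siRNA, from -50 (all cells die) to +50 (no cells die); siRNAs harmful on their own scored 0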
Scale: two-siRNA summed score (-2 to +2): higher = both siRNAs protect from cisplatin killing; -2 means both sensitise; mean protection from cisplatin (shift in death) and protection from cisplatin (shift in death), siRNA C and protection from cisplatin (shift in death), siRNA D: higher = protection from cisplatin killing
Hit rule: 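siRNAs harmful alone (LDH or WST-1) get 0; others get +1 for less and -1 for more cisplatin killing; genes are active when the two siRNAs give the same sign, summing to ±2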
Meaning of the calls: active = both siRNAs shift cisplatin killing the same way; inactive = no consistent shift, or siRNA harmful alone
Shown is one part, drawn at random, of about 23,000 reagents tested. Over the whole deposit, 455 (2%) are marked active. 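Active includes both protection and sensitisation; some change values fall well beyond the stated -50 to +50 range.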 Entries without a mark were called inactive. The record does not give: the amount of reagent.

| gene symbol | PubChem SID | two-siRNA summed score (-2 to +2) | mean protection from cisplatin (shift in death) (%) | protection from cisplatin (shift in death), siRNA C (%) | protection from cisplatin (shift in death), siRNA D (%) |
| --- | --- | --- | --- | --- | --- |
| TRIM69 | SID131512874 | 0 | 5.9 | 12.3 | -0.4 |
| LOC402564 | SID131513853 | 0 | 7.1 | 10.5 | 3.7 |
| LINC00477 | SID131518336 | 0 | 18.5 | 19.2 | 17.7 |
| LOC440937 | SID131515531 | 0 | 9.3 | 12.8 | 5.8 |
| S100A14 | SID131512475 | 0 | 5.5 | 8.5 | 2.5 |
| LOC442724 | SID131515983 | 0 | 10 | 14.9 | 5.2 |
| SLC22A3 | SID131512830 | 0 | 5.9 | 13.8 | -2 |
| VARS1 | SID131504282 | 0 | -5.9 | -9.6 | -2.1 |
| LOC441433 | SID131518682 | 0 | 24.2 | 45.2 | 3.2 |
| MRGPRX1 | SID131519270 | 1 | 4.3 | -12.9 | 21.5 |
| OR1I1 | SID131516113 | 0 | 10.3 | 11.1 | 9.4 |
| TM2D2 | SID131516899 | 0 | 11.9 | 19.2 | 4.6 |
| AMY2B | SID131522521 | 1 | 19.6 | 21.3 | 17.8 |
| PLAUR | SID131505836 | 0 | -2.5 | -2.4 | -2.6 |
| BIRC7 | SID131505108 | 0 | -3.8 | -1.5 | -6 |
| NLK | SID131520934 | 1 | 11.6 | 11.5 | 11.7 |
| VPS37B | SID131505643 | 0 | -2.8 | -15.3 | 9.7 |
| TNNI1 | SID131507912 | 0 | 0.4 | 10.3 | -9.4 |
| MORC1 | SID131503357 | 0 | -10.7 | -1.9 | -19.4 |
| PIK3C3 | SID131504268 | 0 | -5.9 | -7.7 | -4.1 |
| SFXN5 | SID131513520 | 0 | 6.7 | 2.5 | 10.8 |
| ZNF227 | SID131519334 | 1 | 4.8 | -5.5 | 15.1 |
| APOLTP | SID131512092 | 0 | 5.1 | 0.1 | 10.1 |
| NOL7 | SID131514244 | 0 | 7.6 | 6.8 | 8.3 |
| LOC442665 | SID131506886 | 0 | -0.8 | -2.7 | 1 |
| LOC401087 | SID131510322 | 0 | 3.1 | 4 | 2.3 |
| GDE1 | SID131514028 | 0 | 7.3 | 9.2 | 5.4 |
| ODF2 | SID131511716 | 0 | 4.6 | -0.2 | 9.5 |

Continued (5 carried over from the part before).
| gene symbol | PubChem SID | two-siRNA summed score (-2 to +2) | mean protection from cisplatin (shift in death) (%) | protection from cisplatin (shift in death), siRNA C (%) | protection from cisplatin (shift in death), siRNA D (%) |
| --- | --- | --- | --- | --- | --- |
| NOL7 | SID131514244 | 0 | 7.6 | 6.8 | 8.3 |
| LOC442665 | SID131506886 | 0 | -0.8 | -2.7 | 1 |
| LOC401087 | SID131510322 | 0 | 3.1 | 4 | 2.3 |
| GDE1 | SID131514028 | 0 | 7.3 | 9.2 | 5.4 |
| ODF2 | SID131511716 | 0 | 4.6 | -0.2 | 9.5 |
| FLT3 | SID131515125 | 0 | 8.7 | 15.9 | 1.5 |
| RFFL | SID131503222 | 0 | -11.9 | 5 | -28.9 |
| LINC01181 | SID131517354 | 0 | 13.1 | 15.9 | 10.4 |
| GJA8 | SID131517058 | 0 | 12.3 | 4 | 20.6 |
| ASMT | SID131502301 | -1 | -3.6 | -7.6 | 0.5 |
| H1-8 | SID131506072 | 0 | -2.1 | 3.7 | -7.8 |
| NOTCH4 | SID131519149 | 1 | 3 | -9.9 | 15.9 |
| CRACDL | SID131517132 | 0 | 12.5 | 0 | 25 |
| LOC440481 | SID131501971 | -1 | -6.2 | -14 | 1.6 |
| UBR7 | SID131514297 | 0 | 7.6 | 11.4 | 3.9 |
| FAM209A | SID131521661 | 1 | 14.4 | 23.3 | 5.5 |
| TUBB7P | SID131503225 | 0 | -11.9 | 3.2 | -27.1 |
| RXFP2 | SID131521671 | 1 | 14.4 | -3.2 | 32.1 |
| LHFPL3 | SID131502367 | -1 | -3 | -19.5 | 13.4 |
| LOC339693 | SID131510151 | 0 | 2.9 | 10.7 | -4.8 |
| LOC392238 | SID131517491 | 0 | 13.6 | 10.8 | 16.4 |
| MAPK9 | SID131508944 | 0 | 1.6 | -1 | 4.3 |
| STOML3 | SID131501502 | -1 | -9.4 | -17.6 | -1.1 |
| LOC400047 | SID131512825 | 0 | 5.9 | 14.5 | -2.7 |
| C15orf32 | SID131512593 | 0 | 5.7 | 9 | 2.3 |
| ASPRV1 | SID131501135 | -1 | -12.1 | -2.2 | -22 |
| FMOD | SID131520256 | 1 | 9.3 | 12.7 | 5.8 |
| LOC255809 | SID131513230 | 0 | 6.4 | 4.8 | 7.9 |
| LOC440551 | SID131514170 | 0 | 7.5 | 12.7 | 2.2 |
| LOC442550 | SID131521740 | 1 | 14.7 | 6.9 | 22.4 |
| LIMK1 | SID131519223 | 1 | 3.8 | -1.1 | 8.8 |
| IHH | SID131503211 | 0 | -12.1 | -2.4 | -21.8 |
| FAM74A1 | SID131513380 | 0 | 6.5 | 4.5 | 8.6 |
| LOC390107 | SID131518828 | 0 | 29.9 | 23.8 | 36.1 |
